Source: article PMC3283658
No constants are given. Whether binding was seen depends on the method and setting. Binding seen in cells or lysates may run through a third protein. Some entries that bind do so weakly or less than the wild type.

By UniProt entry, the sequences of proteins in these tests, tags left out. Residues count along the entry.
UniProt Q13261, residues 31-267: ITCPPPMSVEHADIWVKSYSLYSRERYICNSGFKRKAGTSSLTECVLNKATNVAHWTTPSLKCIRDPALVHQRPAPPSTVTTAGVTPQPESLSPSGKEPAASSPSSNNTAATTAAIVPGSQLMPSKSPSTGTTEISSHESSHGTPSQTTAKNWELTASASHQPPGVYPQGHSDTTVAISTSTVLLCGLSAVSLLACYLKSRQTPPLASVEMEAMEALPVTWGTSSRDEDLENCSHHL
UniProt P14784, residues 27-551: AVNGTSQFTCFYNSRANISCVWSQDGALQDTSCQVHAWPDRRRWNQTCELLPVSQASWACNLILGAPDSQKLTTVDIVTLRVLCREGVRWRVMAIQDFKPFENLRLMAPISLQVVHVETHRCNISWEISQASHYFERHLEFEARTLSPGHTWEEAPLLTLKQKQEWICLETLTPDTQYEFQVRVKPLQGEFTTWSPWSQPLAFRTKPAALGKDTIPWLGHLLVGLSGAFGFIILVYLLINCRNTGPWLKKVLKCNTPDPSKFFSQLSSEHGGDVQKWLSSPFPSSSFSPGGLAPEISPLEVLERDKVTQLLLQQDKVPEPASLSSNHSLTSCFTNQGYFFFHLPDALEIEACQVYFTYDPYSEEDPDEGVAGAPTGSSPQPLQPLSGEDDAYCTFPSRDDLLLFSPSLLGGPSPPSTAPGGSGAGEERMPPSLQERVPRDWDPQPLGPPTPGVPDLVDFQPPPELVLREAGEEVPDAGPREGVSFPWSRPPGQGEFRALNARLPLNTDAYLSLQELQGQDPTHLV

Target: IL-15Rα chain (human (endogenous in RCC7)) (UniProt Q13261)
Assay: co-IP; RCC7 cell lysate (1% NP-40, 0.1% SDS, 50 mM sodium phosphate pH 7.8, 150 mM NaCl); Sepharose-conjugated anti-IL-15Rα M161, 4 h at 4°C; blots with anti-IL-2Rβ and anti-IL-15Rα; no cytokine added

- binding: binds
Substance: IL-2Rβ chain (from UniProt P14784 27-551) (receptor)
